# Measurements: patent publication US20100135904A1
# By UniProt entry, the sequences of proteins in these tests, tags left out. Residues count along the entry.
# UniProt P20029, residues 20-655: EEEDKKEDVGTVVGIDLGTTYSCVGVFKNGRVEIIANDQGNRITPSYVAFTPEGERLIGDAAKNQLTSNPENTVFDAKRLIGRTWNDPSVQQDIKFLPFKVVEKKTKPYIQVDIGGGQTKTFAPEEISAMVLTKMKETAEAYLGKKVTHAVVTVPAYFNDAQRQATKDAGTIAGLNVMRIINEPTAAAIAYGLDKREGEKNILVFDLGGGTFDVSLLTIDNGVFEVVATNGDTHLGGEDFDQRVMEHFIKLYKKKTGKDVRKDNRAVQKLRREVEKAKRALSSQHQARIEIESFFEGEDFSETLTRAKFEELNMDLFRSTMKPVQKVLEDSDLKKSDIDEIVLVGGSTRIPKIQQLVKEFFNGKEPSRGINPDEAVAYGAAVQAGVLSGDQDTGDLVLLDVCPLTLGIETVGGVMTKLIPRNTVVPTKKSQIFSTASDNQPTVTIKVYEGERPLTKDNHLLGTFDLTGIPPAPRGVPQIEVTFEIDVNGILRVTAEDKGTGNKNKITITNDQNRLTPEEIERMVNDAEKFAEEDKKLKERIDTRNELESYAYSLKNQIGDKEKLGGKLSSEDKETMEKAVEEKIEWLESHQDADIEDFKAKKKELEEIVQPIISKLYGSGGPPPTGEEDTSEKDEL
# UniProt P51865, residues 18-134: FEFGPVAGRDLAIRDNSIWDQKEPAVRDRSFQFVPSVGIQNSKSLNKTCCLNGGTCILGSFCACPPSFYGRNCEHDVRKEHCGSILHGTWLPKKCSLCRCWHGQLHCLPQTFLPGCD
# No constants are given. Whether binding was seen depends on the method and setting. In cells and extracts the contact can be indirect. Some entries that bind do so weakly or less than the wild type.
# Target: endogenous GRP78 of mouse embryonal carcinoma P19 cells (mouse) (UniProt P20029)
# Assay: co-immunoprecipitation of endogenous proteins from surface-biotinylated P19 cells
substance,measurement,value
endogenous Cripto of mouse embryonal carcinoma P19 cells (from UniProt P51865 18-134) (ligand),binding,binds
